Measured values: patent US9334246B2, “Substituted triazines for malaria treatment and chemoprophylaxis” (The United States of America, as represented by the …, priority 2013, dated 2016)
At least one compound was matched to its structure with a doubt left.

Key:
Format in all cases: cell-based, Plasmodium falciparum
P. falciparum D6 = test: Malaria SYBR Green Fluorescence Assay, D6 strain
P. falciparum C235 = test: Malaria SYBR Green Fluorescence Assay, C235 strain
P. falciparum W2 = test: Malaria SYBR Green Fluorescence Assay, W2 strain

SMILES	D6 (SYBR Green Assay IC50) (P. falciparum D6)	C235 (SYBR Green Assay IC50) (P. falciparum C235)	W2 (SYBR Green Assay IC50) (P. falciparum W2)
CCN(CC)CCNc1nc(-c2ccc(Cl)c(Cl)c2)nc(C(Cl)(Cl)Cl)n1.ClC(Cl)(Cl)c1ccc(C(Cl)(Cl)Cl)cc1 [Cmpd 599]	≥ 1 µg/mL	≥ 1 µg/mL	≥ 1 µg/mL
CCN(CC)CCNc1nc(-c2ccc(C(F)(F)F)cc2)nc(C(Cl)(Cl)Cl)n1.ClC(Cl)(Cl)c1ccc(C(Cl)(Cl)Cl)cc1 [Cmpd 600]	≥ 1 µg/mL	≥ 1 µg/mL	≥ 1 µg/mL
CCN(CC)CCNc1nc(-c2ccc(C(Cl)(Cl)Cl)cc2)nc(C(Cl)(Cl)Cl)n1.ClC(Cl)(Cl)c1ccc(C(Cl)(Cl)Cl)cc1 [Cmpd 601]	≥ 1 µg/mL	≥ 1 µg/mL	≥ 1 µg/mL
ClC(Cl)(Cl)c1ccc(C(Cl)(Cl)Cl)cc1.FC(F)(F)c1cccc(-c2nc(NCCCN3CCCC3)nc(C(Cl)(Cl)Cl)n2)c1 [Cmpd 602]	≥ 1 µg/mL	≥ 1 µg/mL	–
ClC(Cl)(Cl)c1ccc(C(Cl)(Cl)Cl)cc1.FC(F)(F)c1ccc(-c2nc(NCCCN3CCCC3)nc(C(Cl)(Cl)Cl)n2)cc1 [Cmpd 607]	≥ 1 µg/mL	≥ 1 µg/mL	≥ 1 µg/mL
